{"source": "PubChem BioAssay AID1508597 (Cure First, 2020)", "aim": "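Genes whose silencing sensitises or protects ovarian cancer cells against rucaparib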 (primary screen)", "cell system": "human ovarian carcinoma lines grown from tumours: OCI-P5x (papillary serous) and OCI-C5x (clear cell)", "reagent": "siRNA pool against human genes, 1.25 pmol siRNA per well", "timing": "72 h or 96 h, depending on the cell culture", "challenge": "rucaparib 20 µM (about IC30) or vehicle, present until read-out", "read-out": "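ATP luminescence measured at 72 or 96 h according to the culture, then normalised and expressed as percent viability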", "reading the numbers": "viability, normalised: higher = more viable cells remaining", "call rule": "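a well counts as a hit if its normalised viability is under 80 percent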", "calls": "active = viability under 80%; inactive = viability 80% or more", "note": "The whole screen tested about 2,100 reagents; this is a part drawn at random. 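Calls flag viability under 80% in either arm, not effects specific to rucaparib; the reference for percent is not stated.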 The record does not give: the 100% reference."}
{"gene knocked down":"POLR2E","rucaparib or vehicle":"Rucaparib","cell line":"OCI-C5x (clear cell)","technical replicate":"1","viability, normalised (%)":66.2,"outcome":"active"}
{"gene knocked down":"POLR2E","rucaparib or vehicle":"Rucaparib","cell line":"OCI-C5x (clear cell)","technical replicate":"2","viability, normalised (%)":65.2,"outcome":"active"}
{"gene knocked down":"POLR2E","rucaparib or vehicle":"Rucaparib","cell line":"OCI-C5x (clear cell)","technical replicate":"3","viability, normalised (%)":89,"outcome":"inactive"}
{"gene knocked down":"POLR2E","rucaparib or vehicle":"Rucaparib","cell line":"OCI-P5x (serous)","technical replicate":"1","viability, normalised (%)":45.5,"outcome":"active"}
{"gene knocked down":"POLR2E","rucaparib or vehicle":"Rucaparib","cell line":"OCI-P5x (serous)","technical replicate":"2","viability, normalised (%)":65.4,"outcome":"active"}
{"gene knocked down":"POLR2E","rucaparib or vehicle":"Rucaparib","cell line":"OCI-P5x (serous)","technical replicate":"3","viability, normalised (%)":46.2,"outcome":"active"}
{"gene knocked down":"POLR2E","rucaparib or vehicle":"Vehicle","cell line":"OCI-C5x (clear cell)","technical replicate":"1","viability, normalised (%)":70.9,"outcome":"active"}
{"gene knocked down":"POLR2E","rucaparib or vehicle":"Vehicle","cell line":"OCI-C5x (clear cell)","technical replicate":"2","viability, normalised (%)":66.8,"outcome":"active"}
{"gene knocked down":"POLR2E","rucaparib or vehicle":"Vehicle","cell line":"OCI-C5x (clear cell)","technical replicate":"3","viability, normalised (%)":71.2,"outcome":"active"}
{"gene knocked down":"POLR2E","rucaparib or vehicle":"Vehicle","cell line":"OCI-P5x (serous)","technical replicate":"1","viability, normalised (%)":68,"outcome":"active"}
{"gene knocked down":"POLR2E","rucaparib or vehicle":"Vehicle","cell line":"OCI-P5x (serous)","technical replicate":"2","viability, normalised (%)":50.2,"outcome":"active"}
{"gene knocked down":"POLR2E","rucaparib or vehicle":"Vehicle","cell line":"OCI-P5x (serous)","technical replicate":"3","viability, normalised (%)":56.1,"outcome":"active"}

Next part; the last 3 above are carried over.
{"gene knocked down":"POLR2E","rucaparib or vehicle":"Vehicle","cell line":"OCI-P5x (serous)","technical replicate":"1","viability, normalised (%)":68,"outcome":"active"}
{"gene knocked down":"POLR2E","rucaparib or vehicle":"Vehicle","cell line":"OCI-P5x (serous)","technical replicate":"2","viability, normalised (%)":50.2,"outcome":"active"}
{"gene knocked down":"POLR2E","rucaparib or vehicle":"Vehicle","cell line":"OCI-P5x (serous)","technical replicate":"3","viability, normalised (%)":56.1,"outcome":"active"}
{"gene knocked down":"ZFP42","rucaparib or vehicle":"Rucaparib","cell line":"OCI-C5x (clear cell)","technical replicate":"1","viability, normalised (%)":74,"outcome":"active"}
{"gene knocked down":"ZFP42","rucaparib or vehicle":"Rucaparib","cell line":"OCI-C5x (clear cell)","technical replicate":"2","viability, normalised (%)":45.3,"outcome":"active"}
{"gene knocked down":"ZFP42","rucaparib or vehicle":"Rucaparib","cell line":"OCI-C5x (clear cell)","technical replicate":"3","viability, normalised (%)":52.3,"outcome":"active"}
{"gene knocked down":"ZFP42","rucaparib or vehicle":"Rucaparib","cell line":"OCI-P5x (serous)","technical replicate":"1","viability, normalised (%)":53.2,"outcome":"active"}
{"gene knocked down":"ZFP42","rucaparib or vehicle":"Rucaparib","cell line":"OCI-P5x (serous)","technical replicate":"2","viability, normalised (%)":59.8,"outcome":"active"}
{"gene knocked down":"ZFP42","rucaparib or vehicle":"Rucaparib","cell line":"OCI-P5x (serous)","technical replicate":"3","viability, normalised (%)":29.5,"outcome":"active"}
{"gene knocked down":"ZFP42","rucaparib or vehicle":"Vehicle","cell line":"OCI-C5x (clear cell)","technical replicate":"1","viability, normalised (%)":53.9,"outcome":"active"}
{"gene knocked down":"ZFP42","rucaparib or vehicle":"Vehicle","cell line":"OCI-C5x (clear cell)","technical replicate":"2","viability, normalised (%)":44.9,"outcome":"active"}
{"gene knocked down":"ZFP42","rucaparib or vehicle":"Vehicle","cell line":"OCI-C5x (clear cell)","technical replicate":"3","viability, normalised (%)":55.2,"outcome":"active"}
{"gene knocked down":"ZFP42","rucaparib or vehicle":"Vehicle","cell line":"OCI-P5x (serous)","technical replicate":"1","viability, normalised (%)":47.8,"outcome":"active"}
{"gene knocked down":"ZFP42","rucaparib or vehicle":"Vehicle","cell line":"OCI-P5x (serous)","technical replicate":"2","viability, normalised (%)":60.2,"outcome":"active"}
{"gene knocked down":"ZFP42","rucaparib or vehicle":"Vehicle","cell line":"OCI-P5x (serous)","technical replicate":"3","viability, normalised (%)":55.6,"outcome":"active"}
